For at least one compound, name, drawing or mass did not settle the structure.
Test system: CD80
Test: Evaluation of stimulus to activate innate immune system: expression of CD80 in cultured mice spleen cells (flow cytometry)
Conditions: solution (5 μL) of sample added alone: peptide, OVA 800 μg/mL, DLPC 1000 nmol/mL, deoxycholic acid 1600 nmol/mL; FIG. 8(B)

C[C@H](CCC(=O)O)[C@H]1CC[C@H]2[C@@H]3CC[C@@H]4C[C@H](O)CC[C@]4(C)[C@H]3C[C@H](O)[C@]12C [Deoxycholic acid]
fluorescence intensity of CD80PE compared with PBS: remained unchanged from that in the case where PBS was added

Reference: patent publication US11000586B2, “Adjuvant composition, vaccine composition containing the same, and method for producing both of them” (TERUMO KABUSHIKI KAISHA, priority 2013, dated 2021)
